From patent US20240122949A1, “METHOD OF TREATING VARIOUS DISORDERS AND CONDITIONS USING CITICOLINE” (priority 2022, published 2024)
At least one structure is not confirmed: it was looked up by name or label, or the drawing left a doubt.

Experiments:
muscarinic M1 receptor = test: Radioreceptor assay using [3H] ligand with Scatchard analysis of muscarinic M1 receptor in spinal cord of spinal cord injured rats; assay type: in vivo; settings: treatment given with bone marrow, p<0.001, injured group decreased vs control
[1] = tested on: muscarinic M1 receptor mRNA; test: Real time PCR amplification of muscarinic M1 receptor mRNA in the T9-T12 region of spinal cord; assay type: in vivo, rats; settings: compared to spinal cord injured group, p<0.001, to near control

## C[N+](C)(C)CCOP(=O)(O)OP(=O)([O-])OC[C@H]1O[C@@H](n2ccc(N)nc2=O)[C@H](O)[C@@H]1O [Citicoline, cytidine 5′-diphosphocholine]
Muscarinic M1 receptor
  Bmax of muscarinic M1 receptor (Scatchard analysis): significant reversal
  Kd of muscarinic M1 receptor (Scatchard analysis): significant reversal
[1]
  Muscarinic M1 receptor gene expression: significantly reversed
